Results deposited as PubChem BioAssay AID602196 (INSERM, 2012).
Aim: 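Genes whose knock-down alters cisplatin killing of lung cancer cells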. Cell system: human A549 lung cancer cells. Reagents: siRNA pair against human genes. Timing: 48 h transfection before cisplatin; time from cisplatin to read-out not stated. Conditions: cisplatin at a dose killing half of control-siRNA cells; exact dose and duration not given. Read-out: 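Cisplatin cell death as a shift from the 50% death seen with control siRNA; siRNAs toxic or growth-blocking alone scored 0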. Reading the numbers: two-siRNA summed score (-2 to +2): higher = both siRNAs protect from cisplatin killing; -2 means both sensitise; mean protection from cisplatin (shift in death) and protection from cisplatin (shift in death), siRNA C and protection from cisplatin (shift in death), siRNA D: higher = protection from cisplatin killing. Call rule: 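Each siRNA scores 0 if harmful alone by LDH or WST-1, otherwise +1 if it reduces and -1 if it increases cisplatin killing; a gene is active when both siRNAs agree (sum +2 or -2)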. Calls: active = both siRNAs shift cisplatin killing the same way; inactive = no consistent shift, or siRNA harmful alone.
The whole screen tested about 23,000 reagents; below is an unselected part. 455 of all reagents (2%) were called active. 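Active includes both protection and sensitisation; some change values fall well beyond the stated -50 to +50 range.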 A number with no mark means an inactive call. Reagents against one gene are numbered here. Not given: the amount of reagent.

gene | reagent no. | two-siRNA summed score (-2 to +2) | mean protection from cisplatin (shift in death) (%) | protection from cisplatin (shift in death), siRNA C (%) | protection from cisplatin (shift in death), siRNA D (%)
CYP4V2 | 1 | -1 | -8.9 | -20.4 | 2.7
IL12RB1 | 1 | 1 | 14.9 | 9.1 | 20.7
THAP12 | 1 | -1 | -6.3 | -14.9 | 2.4
DNAI2 | 1 | -1 | -14 | -8.3 | -19.7
KLKB1 | 1 | 0 | -0.2 | 4.9 | -5.3
ATP2B1 | 1 | -1 | -3.6 | -12.9 | 5.7
CNNM2 | 1 | 0 | -0.9 | -4.6 | 2.8
CDC42EP1 | 1 | 0 | 4.8 | 14 | -4.5
NDFIP2 | 1 | 0 | -3.3 | -10.7 | 4.1
ZBED4 | 1 | 0 | 8 | 9.2 | 6.7
H2AC12 | 1 | 0 | 4.2 | 1.2 | 7.2
LOC154907 | 1 | 0 | 7.8 | 4.4 | 11.2
CPXM2 | 1 | 1 | 19.9 | 30.7 | 9.1
AKR7A3 | 1 | -1 | -17.6 | -31.5 | -3.7
LINC01465 | 1 | 0 | -3.9 | -8 | 0.3
LOC388939 | 1 | -1 | -1.4 | 10.2 | -13
FCGR2A | 1 | 0 | 5.8 | 9.6 | 2.1
PEX7 | 1 | -1 | -23.5 | -26.7 | -20.3
C11orf71 | 1 | 0 | 8.8 | 16.8 | 0.7
LOC442123 | 1 | 2 (active) | 28.3 | 24.3 | 32.4
ERF | 1 | 0 | 1 | -0.9 | 2.8
DBNL | 1 | 0 | 9.2 | 0.8 | 17.5
DBNL | 2 | 1 | 3.7 | -3.2 | 10.7
ALG1L6P | 1 | 1 | 10 | 10.1 | 9.9
MANSC1 | 1 | 0 | -2.3 | 3.5 | -8.1
CHM | 1 | 0 | -7 | -7 | -7.1
LOC389405 (retired record) | 1 | 0 | 13.4 | 13.8 | 13.1
ERVFC1-1 | 1 | 0 | 8.4 | 6.8 | 9.9
HNF4A | 1 | 0 | -0.1 | 3.2 | -3.4
ATF2 | 1 | 0 | -0.9 | -0.9 | -1
CHRDL1 | 1 | 1 | 7.4 | 12 | 2.9
XDH | 1 | 0 | 1.1 | 2.7 | -0.6
HBQ1 | 1 | 0 | 18.5 | 13.6 | 23.5
TIMP4 | 1 | 0 | 3.3 | -4.6 | 11.2
PEX3 | 1 | 0 | 2.9 | -2.4 | 8.1
ZNF443 | 1 | 1 | 15.6 | 11.9 | 19.3
GPR63 | 1 | 0 | 5.7 | 2.2 | 9.1
LOC402214 | 1 | 0 | 7.2 | 9 | 5.3
KIF26A | 1 | 0 | 5.5 | -6.3 | 17.3
APOF | 1 | -1 | -5.6 | 8.3 | -19.6
PRKRIP1 | 1 | 0 | 7.3 | 7.8 | 6.9
GALNT6 | 1 | 1 | 20.5 | 27.7 | 13.3
CCKBR | 1 | -1 | -25.1 | -26.8 | -23.4
LOC153910 | 1 | 0 | 7.9 | 13.7 | 2.2
USHBP1 | 1 | 0 | 2.4 | 12.4 | -7.5
LOC94431 | 1 | 0 | 5.9 | 11.6 | 0.2
APTX | 1 | 0 | -4.7 | -6.9 | -2.6
CLDN11 | 1 | 1 | 12.1 | 23.1 | 1
DRC2 | 1 | 1 | 22.5 | 24.1 | 20.8
RPL31P8 | 1 | 0 | 4 | 7.6 | 0.5
LOC388819 | 1 | 1 | 13.1 | 7 | 19.1
LOC388199 | 1 | 1 | 20.7 | 15.6 | 25.9
SMARCA4 | 1 | 0 | -5.6 | -9.7 | -1.4
LOC284788 | 1 | 1 | 2.6 | -4.5 | 9.7
PPP6R2 | 1 | 1 | 9.9 | 22.9 | -3.2
HNRNPH1 | 1 | 1 | 14.4 | -8.7 | 37.5
GOLGA2P9 | 1 | 0 | 7.3 | 11.3 | 3.3

Reagents above called active (1):
gene | reagent no. | two-siRNA summed score (-2 to +2) | mean protection from cisplatin (shift in death) (%) | protection from cisplatin (shift in death), siRNA C (%) | protection from cisplatin (shift in death), siRNA D (%)
LOC442123 | 1 | 2 (active) | 28.3 | 24.3 | 32.4
